Here are results for one substance from article PMC7405549.

By UniProt entry, the sequences of proteins in these tests, tags left out.
UniProt P10417: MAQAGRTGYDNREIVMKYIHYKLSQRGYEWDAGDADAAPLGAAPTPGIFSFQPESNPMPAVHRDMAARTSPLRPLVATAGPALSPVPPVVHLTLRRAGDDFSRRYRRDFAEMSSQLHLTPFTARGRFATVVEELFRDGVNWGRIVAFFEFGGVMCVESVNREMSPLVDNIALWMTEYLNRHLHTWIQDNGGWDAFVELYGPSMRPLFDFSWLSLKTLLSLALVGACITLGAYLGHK

No constants are given. Whether binding was seen depends on the method and setting. In cells and extracts the contact can be indirect.

The experiment concerns the target T1, Acheron/Larp6 (mouse) (mouse (endogenous in C2C12)) (UniProt Q8BN59).
T1 sequence: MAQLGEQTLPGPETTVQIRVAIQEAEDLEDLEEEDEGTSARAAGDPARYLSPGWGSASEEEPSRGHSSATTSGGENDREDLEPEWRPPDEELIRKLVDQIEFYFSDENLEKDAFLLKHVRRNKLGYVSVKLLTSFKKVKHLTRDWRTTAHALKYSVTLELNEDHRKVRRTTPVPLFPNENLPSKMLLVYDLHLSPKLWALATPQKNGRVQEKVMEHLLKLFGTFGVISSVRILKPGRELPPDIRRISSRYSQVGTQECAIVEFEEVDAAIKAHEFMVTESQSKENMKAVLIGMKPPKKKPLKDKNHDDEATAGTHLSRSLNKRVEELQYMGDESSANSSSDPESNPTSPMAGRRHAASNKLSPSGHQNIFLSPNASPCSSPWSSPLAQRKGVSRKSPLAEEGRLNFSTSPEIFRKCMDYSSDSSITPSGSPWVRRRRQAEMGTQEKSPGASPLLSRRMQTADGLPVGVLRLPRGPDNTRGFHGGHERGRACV
Kind of experiment: co-IP; mouse C2C12 myoblast lysates (400-500 ug) with rabbit polyclonal anti-Acheron antibody (1:200) overnight at 4°C, protein A sepharose; 10 mM Tris pH 7.4, 1% triton, 0.5% NP-40, 150 mM NaCl; immunoblot for partners.

For the substance “Bcl-2 (mouse) (from UniProt P10417 1-236)”, the binding result is “no binding”.
